Assay results: patent US20250108100A1, “C-TERMINAL FRAGMENT OF APOLIPOPROTEIN E AND APPLICATION THEREOF IN INHIBITING y-SECRETASE ACTIVITY” (SYNPHATEC (SHANGHAI) BIOPHARMACEUTICAL TECHNOLOGY CO., LTD., priority 2022, published 2025)

Experiments:
[1] = tested on: primary cultured neurons; test: Immunofluorescence of ApoE from culture medium in primary cultured neurons; assay type: cell-based, mouse; conditions: immunofluorescence after co-incubation
[2] = tested on: HEK 293T cells; test: Immunofluorescence of ApoE from culture medium in HEK 293T cells; assay type: cell-based, human; conditions: immunofluorescence after co-incubation

ApoE2: human apolipoprotein E2, full-length 299 amino acid residues, SEQ ID NO: 12
protein from culture medium detected inside neurons [1]: mainly adhered to the cell surface and hardly entered the cell; also recorded: largely could not be detected inside the primary cultured neurons; also recorded: mainly detected outside the cell membrane
protein from culture medium detected inside cells [2]: mainly adhered to the cell surface and hardly entered the cell; also recorded: largely could not be detected inside the cells; also recorded: mainly detected outside the cell membrane

Entries after “also recorded” stand apart in the source; their conditions may differ.
